Results taken from paper PMC6718408.
No constants are given. Whether binding was seen depends on the method and setting. Binding seen in cells or lysates may run through a third protein.

Chains of the proteins cited; added tags and fusions are not shown.
UniProt Q02780: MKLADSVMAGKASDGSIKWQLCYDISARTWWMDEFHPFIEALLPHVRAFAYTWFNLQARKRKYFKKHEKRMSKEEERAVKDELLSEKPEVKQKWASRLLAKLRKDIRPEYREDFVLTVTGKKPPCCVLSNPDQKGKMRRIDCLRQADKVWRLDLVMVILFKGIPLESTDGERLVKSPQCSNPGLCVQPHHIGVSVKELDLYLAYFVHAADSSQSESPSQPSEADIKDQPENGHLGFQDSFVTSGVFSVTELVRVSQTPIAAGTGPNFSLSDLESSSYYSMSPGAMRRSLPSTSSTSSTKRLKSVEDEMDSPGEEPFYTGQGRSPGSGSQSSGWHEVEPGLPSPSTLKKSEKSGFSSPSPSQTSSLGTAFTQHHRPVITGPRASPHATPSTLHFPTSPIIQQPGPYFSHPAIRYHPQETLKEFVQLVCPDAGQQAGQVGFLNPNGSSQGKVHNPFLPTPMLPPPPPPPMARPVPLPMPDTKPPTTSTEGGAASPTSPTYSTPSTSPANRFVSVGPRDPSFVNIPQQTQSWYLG

How the values were obtained:
[1] = molecular target: Flag-tagged Nfia (UniProt Q02780); assay: co-IP; HEK293T co-transfected with Flag-tagged Nfia or Nfib and HA-tagged YAP1 fusion-related proteins; lysed 2 days after transfection in IP buffer (20 mM Tris-HCl pH 8.0, 200 mM NaCl, 1 mM EDTA, 1 mM EGTA, 1% Triton X-100); anti-FLAG M2 magnetic beads, 4 h at RT; western blot
[2] = molecular target: Flag-tagged Nfib (UniProt P97863); assay: as above

binding [1]: no binding | binding [2]: no binding
Substance: YAP1 wild type, HA-tagged (from UniProt P46937-1 1-504)
